Laboratory results reported in article PMC8263706.
No constants are given. Whether binding was seen depends on the method and setting. In cells and extracts the contact can be indirect. Binding can be weak; no strength is given. For part of these data: Where a sequence is shown, tags or fusion partners need not be part of it. Blank lines part the entries; values can stand above or below the molecule they belong to.

The chains behind the UniProt entries cited, without tags or fusion partners. Where a name states a change or a piece, a line headed by the entry shows the natural chain unless it says otherwise. Residues count along the entry.
UniProt Q9ZWC8: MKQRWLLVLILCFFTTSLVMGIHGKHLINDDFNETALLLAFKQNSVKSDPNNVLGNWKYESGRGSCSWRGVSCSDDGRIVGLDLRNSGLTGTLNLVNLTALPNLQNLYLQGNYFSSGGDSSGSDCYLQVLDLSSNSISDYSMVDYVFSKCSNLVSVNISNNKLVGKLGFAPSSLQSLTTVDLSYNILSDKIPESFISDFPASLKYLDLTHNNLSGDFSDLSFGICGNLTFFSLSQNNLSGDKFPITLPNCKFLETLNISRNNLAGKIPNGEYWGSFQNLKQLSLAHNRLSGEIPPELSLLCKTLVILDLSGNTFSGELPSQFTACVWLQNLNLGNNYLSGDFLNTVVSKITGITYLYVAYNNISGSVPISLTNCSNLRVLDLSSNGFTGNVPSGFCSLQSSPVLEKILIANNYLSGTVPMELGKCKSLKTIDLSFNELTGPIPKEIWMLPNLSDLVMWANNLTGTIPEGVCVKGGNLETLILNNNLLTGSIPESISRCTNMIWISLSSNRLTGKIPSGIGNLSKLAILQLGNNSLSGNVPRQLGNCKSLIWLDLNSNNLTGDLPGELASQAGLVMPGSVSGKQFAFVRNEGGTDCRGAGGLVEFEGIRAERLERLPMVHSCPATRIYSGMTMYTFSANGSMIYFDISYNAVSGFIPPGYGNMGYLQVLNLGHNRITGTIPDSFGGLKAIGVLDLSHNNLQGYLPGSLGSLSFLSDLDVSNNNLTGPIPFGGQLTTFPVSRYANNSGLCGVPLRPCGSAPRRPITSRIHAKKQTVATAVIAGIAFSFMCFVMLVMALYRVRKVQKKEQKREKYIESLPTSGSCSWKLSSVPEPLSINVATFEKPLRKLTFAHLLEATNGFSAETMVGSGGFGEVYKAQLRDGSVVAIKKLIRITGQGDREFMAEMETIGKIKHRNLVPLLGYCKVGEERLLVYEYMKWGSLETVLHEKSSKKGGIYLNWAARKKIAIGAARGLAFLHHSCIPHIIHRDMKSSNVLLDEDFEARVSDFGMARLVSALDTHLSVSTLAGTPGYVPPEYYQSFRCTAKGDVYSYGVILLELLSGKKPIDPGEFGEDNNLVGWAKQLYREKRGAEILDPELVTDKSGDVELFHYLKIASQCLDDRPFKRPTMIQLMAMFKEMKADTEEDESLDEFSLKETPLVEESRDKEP
UniProt O22476, residues 24-1196: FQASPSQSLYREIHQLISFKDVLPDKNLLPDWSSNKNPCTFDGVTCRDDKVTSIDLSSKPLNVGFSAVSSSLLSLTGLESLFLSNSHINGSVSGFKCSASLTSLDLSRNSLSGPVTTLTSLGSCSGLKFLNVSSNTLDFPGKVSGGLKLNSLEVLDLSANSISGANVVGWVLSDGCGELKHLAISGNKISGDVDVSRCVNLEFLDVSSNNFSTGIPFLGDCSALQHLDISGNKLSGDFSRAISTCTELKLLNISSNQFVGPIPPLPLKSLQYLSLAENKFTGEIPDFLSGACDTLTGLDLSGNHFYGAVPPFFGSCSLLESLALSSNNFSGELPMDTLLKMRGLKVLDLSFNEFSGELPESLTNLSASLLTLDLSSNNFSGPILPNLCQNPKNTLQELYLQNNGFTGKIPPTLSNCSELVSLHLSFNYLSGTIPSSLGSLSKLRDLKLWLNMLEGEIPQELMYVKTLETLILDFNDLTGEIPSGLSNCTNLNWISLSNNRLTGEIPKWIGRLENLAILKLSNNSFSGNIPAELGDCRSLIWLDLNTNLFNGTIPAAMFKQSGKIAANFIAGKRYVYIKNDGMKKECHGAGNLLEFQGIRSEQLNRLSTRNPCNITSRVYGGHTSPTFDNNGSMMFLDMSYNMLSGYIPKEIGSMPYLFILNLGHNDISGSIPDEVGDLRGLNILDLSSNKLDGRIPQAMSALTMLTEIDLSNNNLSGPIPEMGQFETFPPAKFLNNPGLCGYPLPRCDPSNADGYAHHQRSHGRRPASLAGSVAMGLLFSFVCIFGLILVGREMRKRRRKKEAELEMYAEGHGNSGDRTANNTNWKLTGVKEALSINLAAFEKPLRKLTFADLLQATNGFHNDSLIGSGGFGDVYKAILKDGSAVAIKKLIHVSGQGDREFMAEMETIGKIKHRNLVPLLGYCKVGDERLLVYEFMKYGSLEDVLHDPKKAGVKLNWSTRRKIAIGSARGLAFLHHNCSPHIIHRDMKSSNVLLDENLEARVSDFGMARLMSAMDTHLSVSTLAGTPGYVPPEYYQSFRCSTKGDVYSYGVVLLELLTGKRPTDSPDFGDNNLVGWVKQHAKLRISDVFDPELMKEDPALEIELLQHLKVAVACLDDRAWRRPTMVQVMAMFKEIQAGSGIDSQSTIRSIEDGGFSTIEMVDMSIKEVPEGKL
UniProt Q94C78: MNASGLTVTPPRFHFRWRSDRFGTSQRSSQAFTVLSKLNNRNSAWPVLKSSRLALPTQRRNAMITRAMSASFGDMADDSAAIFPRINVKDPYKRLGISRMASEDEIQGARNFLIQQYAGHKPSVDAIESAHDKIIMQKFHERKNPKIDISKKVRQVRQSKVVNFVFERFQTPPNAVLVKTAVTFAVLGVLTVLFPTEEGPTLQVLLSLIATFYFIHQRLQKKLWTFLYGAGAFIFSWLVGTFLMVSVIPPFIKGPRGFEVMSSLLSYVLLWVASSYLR

Experiments:
[1] = target: cytosolic domain of BRI1-Like 1 (BRL1) (UniProt Q9ZWC8); assay: pull-down; MBP-DAY and the cytosolic domain of BRL1 (Supplementary Fig. 20b); who was immobilised is not given
[2] = target: Flag-BRI1 KD with the JM domain (UniProt O22476); assay: pull-down; Flag-tagged BRI1 cytosolic constructs immobilised on resin, incubated with E. coli lysates expressing MBP or MBP-DAY variants; 20 mM Tris-HCl pH 7.5, 200 mM NaCl, 10% glycerol, 1% IGEPAL, 1 h at room temperature; immunoblotting; only the target purified
[3] = target: Flag-BRI1 KD with the CT domain (UniProt O22476); assay: as above
BRI1-nYFP = BRI1-nYFP (UniProt O22476); assay: split reporter; BRI1-nYFP and DAY-cYFP co-expressed; N. benthamiana epidermal cells observed two days after agroinfiltration; compared with SYP61-mRFP (TGN/EE)
[4] = target: DAY-GFP (Arabidopsis thaliana) (UniProt Q94C78); assay: co-IP; total proteins of 7 days old 35S::DAY-GFP Arabidopsis seedlings (WT Col-0 as control), GFP-Trap Agarose 6 h in the cold room, four washes with co-IP buffer; anti-BRI1 immunoblot
[5] = target: MBP-∆cTP DAY (Arabidopsis thaliana); assay: pull-down; MBP or MBP-∆cTP DAY immobilised on amylose agarose resin, incubated with lysates of E. coli cells expressing the prey; 20 mM Tris-HCl pH 7.5, 200 mM NaCl, 10% glycerol, 1% IGEPAL, 1 h at room temperature; eluates immunoblotted (anti-GST or anti-Flag); only the target purified

binding [1]: binds
binding [2]: binds
binding [3]: binds
Molecule: MBP-DAY (from UniProt Q94C78)

binding (BRI1-nYFP): binds
Molecule: DAY-cYFP (from UniProt Q94C78)

binding [4]: binds
Molecule: native BRI1 (from UniProt O22476 24-1196) (receptor)

binding [5]: binds
B1: GST-CPP1 (protein, UniProt Q9FN50 49-258)
chain: TVDSSYGGNVPTFPRTRVWDPYKRLGVSPYASEEEIWASRNFLLQQYAGHERSEESIEGAFEKLLMSSFIRRKKTKINLKSKLKKKVEESPPWLKALLDFVEMPPMDTIFRRLFLFAFMGGWSIMNSAEGGPAFQVAVSLAACVYFLNEKTKSLGRACLIGIGALVAGWFCGSLIIPMIPTFLIQPTWTLELLTSLVAYVFLFLSCTFLK
